# Assay results from patent US10463764B2, “3D tissue-engineered bone marrow for personalized therapy and drug development” (Washington University, priority 2014, dated 2019).
# Test system: MM1s-GFP cells
# Assay: Doxorubicin drug uptake by MM cells in 3DTEBM versus classic 2D cultures, by flow cytometry
# Assay type: cell-based
structure (smiles),measurement,setting,value
COc1cccc2c1C(=O)c1c(O)c3c(c(O)c1C2=O)C[C@@](O)(C(=O)CO)C[C@@H]3O[C@H]1C[C@H](N)[C@H](O)[C@H](C)O1 [doxorubicin],drug uptake of MM cells grown in 3DTEBM as a function of tissue depth,"7.5 μg/ml, 4 h, 25-150 μl 3DTEBM",inversely correlated with the depth of the tissue
same,less drug uptake by MM cells in 3DTEBM than in classic 2D cultures,"4 h treatment, all drug concentrations tested (0-10 μg/ml), p<0.02",2 fold
